# In US6368598B1, “Drug complex for treatment of metastatic prostate cancer” (priority 1996, dated 2002):
# Amino acid sequences for entries named in this document (tags omitted). Residues count along the entry.
# UniProt P07288, 25-261: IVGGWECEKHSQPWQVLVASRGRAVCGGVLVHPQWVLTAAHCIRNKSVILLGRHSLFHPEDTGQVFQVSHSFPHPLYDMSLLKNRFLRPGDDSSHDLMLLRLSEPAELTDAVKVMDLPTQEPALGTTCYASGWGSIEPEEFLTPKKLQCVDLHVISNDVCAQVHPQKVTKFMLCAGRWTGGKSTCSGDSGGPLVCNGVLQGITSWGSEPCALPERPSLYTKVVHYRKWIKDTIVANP
# Not every detail of the peptide structures is certain; ends, links or a residue may be inferred. Residues, ends and D or L forms follow the SMILES beside them. *: point of attachment. pNA = O=[N+]([O-])c1ccc(N*)cc1; MeOSuc = COC(=O)CCC(=O)*
# Key:
# [1] = tested on: "PSA-like" activity in the sonicate of LNCaP; assay: Cleavage by sonicate of LNCaP cell line (PSA-like activity); type: biochemical, human; conditions: colorimetric
# [2] = Cleavage by negative control CV-1 cell line that does not produce PSA; type: biochemical; conditions: CV-1 negative control
# [3] = biological target: PSA (Homo sapiens, UniProt P07288); conditions: Christensson et al. 1990; cited from earlier work
smiles,measurement,setting,value
COC(=O)CCC(=O)N[C@@H](CCCNC(=N)N)C(=O)N1CCC[C@H]1C(=O)N[C@@H](Cc1ccc(O)cc1)C(=O)Nc1ccc([N+](=O)[O-])cc1 [compound 2] (MeOSuc-Arg-Pro-Tyr-pNA),"cleavage at the tyrosine site, release of pNA",[1],cleaves
same,"cleavage, release of pNA",[2],did not cleave
same,cleavage by PSA at the tyrosine site,[3],cleaves
